Like-named read-outs stand apart in the source and are kept apart here. No constants are given. Whether binding was seen depends on the method and setting. In cells and extracts the contact can be indirect. Some results given as binding are weak or reduced against the parent protein; the word gives no strength. For part of these data: Sequences can lack the tags named with a protein. One block for each molecule: values may come before it.
Legend:
Test in all cases: co-IP
[1] = molecular target: T1, Fpn-GFP in doxycycline-inducible HEK293:TRex-Fpn-GFP (TRex) cells (UniProt Q9NP59)
T1 sequence: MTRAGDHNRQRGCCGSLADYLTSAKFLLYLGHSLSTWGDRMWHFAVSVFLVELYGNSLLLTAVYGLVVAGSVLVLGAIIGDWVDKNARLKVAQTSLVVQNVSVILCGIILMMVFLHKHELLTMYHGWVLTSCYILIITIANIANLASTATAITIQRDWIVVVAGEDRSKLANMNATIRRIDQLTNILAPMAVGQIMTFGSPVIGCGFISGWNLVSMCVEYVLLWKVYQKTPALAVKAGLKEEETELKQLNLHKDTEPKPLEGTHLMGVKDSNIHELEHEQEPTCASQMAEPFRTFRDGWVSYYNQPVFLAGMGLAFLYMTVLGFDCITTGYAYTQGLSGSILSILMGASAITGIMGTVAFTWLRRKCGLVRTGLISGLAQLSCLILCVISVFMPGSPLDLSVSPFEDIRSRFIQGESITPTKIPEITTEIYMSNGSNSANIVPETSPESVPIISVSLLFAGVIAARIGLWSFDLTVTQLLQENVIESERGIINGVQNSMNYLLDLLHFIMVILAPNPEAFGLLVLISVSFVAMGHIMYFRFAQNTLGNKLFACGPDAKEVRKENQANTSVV

[2] = molecular target: T2, ferroportin (Fpn), endogenous in mouse duodenum (mouse (endogenous in duodenum)) (UniProt Q9JHI9)
T2 sequence: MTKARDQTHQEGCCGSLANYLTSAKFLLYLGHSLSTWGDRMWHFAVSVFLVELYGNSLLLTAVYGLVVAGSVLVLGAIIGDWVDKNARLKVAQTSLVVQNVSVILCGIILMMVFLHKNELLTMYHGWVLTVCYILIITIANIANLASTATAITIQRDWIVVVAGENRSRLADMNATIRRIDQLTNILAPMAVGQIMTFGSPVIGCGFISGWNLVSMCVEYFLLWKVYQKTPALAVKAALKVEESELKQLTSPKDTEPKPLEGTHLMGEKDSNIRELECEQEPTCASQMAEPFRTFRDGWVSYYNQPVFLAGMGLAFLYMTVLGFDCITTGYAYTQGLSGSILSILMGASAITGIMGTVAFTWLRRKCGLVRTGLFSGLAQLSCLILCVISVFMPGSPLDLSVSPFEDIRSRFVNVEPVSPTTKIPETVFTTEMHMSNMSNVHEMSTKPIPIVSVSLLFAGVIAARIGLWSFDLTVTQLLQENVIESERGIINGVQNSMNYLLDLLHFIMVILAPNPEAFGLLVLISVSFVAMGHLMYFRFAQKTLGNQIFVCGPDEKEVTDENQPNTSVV

[3] = molecular target: T1, Fpn-GFP in doxycycline-inducible HEK293:TRex-Fpn-GFP (TRex) cells; remark: listed apart in the source

binding [1]: binds
Molecule: HA-tagged full-length PKCα (from UniProt P17252 1-672) (enzyme)

binding [2]: binds
Molecule: protein kinase C alpha (PKCα), endogenous in mouse duodenum (from UniProt P20444 1-672) (enzyme)

binding [3]: binds
Molecule: DTHFPICIFCCGCCHRSKCGMCCKT (peptide, UniProt P81172 60-84, biotin (position not given)) [Biotinyl-Hepcidin-25 (biotinylated human hepcidin)]

Source: paper doi:10.1101/2023.11.28.569107
